We go through 9 compounds from the supplement of paper PMC8007513.

The other results are listed elsewhere or left out. Many values rest on one well or one pass, so single values are uncertain.

For the test, the system named is Saccharomyces cerevisiae BY4743. The test is described as follows: growth (OD600) relative to untreated control; higher = less growth inhibition. The conditions noted are these: compound concentration: 133 uM; 20 h. How it is done: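 NMCCC compounds (133 uM, no IPBC) tested alone against Saccharomyces cerevisiae BY4743 in YPD, 96-well plates, starting OD600 ~0.1. Growth was read as OD600 at 20 h and expressed as % of the untreated control. Single pass.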
`COC(=O)C(O)(c1cn(C)c2ccccc12)C(F)(F)F` (centres undefined) displayed a growth of 94.5%.
In the case of `CC1C\N=C(\NC2=NC=CC=C2C)S1` (centres undefined) it was 98.9%; in that of `COc1cc2c(cc1OC)C1CC(=O)C(CC(C)C)CN1CC2` (centres undefined), 99.9%.
`NCCCC(=O)OC1\N=C(\C2=CC=CC=C2Cl)C3=CC(=CC=C3NC1=O)Br` (centres undefined) displayed a growth of 105%.
In the case of `COc1ccc(NC(=O)c2c(C)nn(Cc3ccccc3Cl)c2C)cc1` it was 95.7%.
In the case of `O=C(OCC(=O)N1CCNC1=O)c1cnn(Cc2ccccc2)c1` it was 85.1%; in that of `CCS\C1=N\C2=CC=CC=C2C(=O)N1C3=CC=CN=C3`, 104%.
In the case of `Cc1noc(C(=O)N2CCC3(CC2)OCCO3)c1Cl`, the growth was found to be 107%.
The same measure for `CC(=O)NN1C(=O)c2ccccc2NC1c1cccnc1` (centres undefined): 105%.
